For data set [1], the system named is female 300-350 gram Wistar rats. As to the kind of experiment: Feeding test of rat bait particles on rats (Example 8). The data set is classed as in vivo. Particulars: 1.0 mg aldicarb particles, one per twenty grams of oatmeal (50 ppm), five female Wistar rats. The protocol: Suitably larger particles appropriate for rats, i.e. about 1 mm x 1 mm cylinders, containing 1.0 mg of aldicarb per particle were produced by extrusion.
(§1) The mouse bait particles were distributed in medium oatmeal at the concentration of one per two grams of oatmeal (50 ppm), and the rat bait particles were distributed in medium oatmeal at the concentration of one per twenty grams of oatmeal (50 ppm).
(§2) Ten male 12-18 gram LAC mice and five female 300-350 gram Wistar rats were permitted to feed on the mouse bait; and five female 300-350 gram Wistar rats were allowed to feed on the rat bait. The baits were topped up when necessary to keep a supply of food material available, and water was supplied freely.

The subject of the next data set is male 12-18 gram LAC mice. As to the kind of experiment: Feeding test of mouse bait particles on mice (Example 8). Particulars: 0.1 mg aldicarb particles, one per two grams of oatmeal (50 ppm), ten male LAC mice. In kind it is in vivo. Here is the method:
Particles of a size suitable for consumption whole (without nibbling) by mice, i.e. about 0.5 mm diameter spheres, containing 0.1 mg of aldicarb per particle were produced by a precipitation process.
as §1, §2

Take `CNC(=O)O/N=C/C(C)(C)SC` [aldicarb, 2 methyl-2-(methylthio) propionaldehyde 0-(methylcarbamoyl) oxime]: the “Rat bait particles Rat Consumption” value in data set [1] (Day 1) came out at 70 g; in data set [1] (Day 2), 20 g; in data set [1] (Day 3) it was 0 g. In addition, the “Mouse bait particles Mouse Consumption” value in the data set with male 12-18 gram LAC mice (Day 1) is given as 25 g; in the data set with male 12-18 gram LAC mice (Day 2), 10 g; in the data set on male 12-18 gram LAC mice (Day 3), 0 g.

Source of the values: patent publication EP0109697B1, “Rodent bait” (priority 1982, dated 1984).
